These are yes or no findings as the source states them, for the method shown. Binding seen in cells or lysates may run through a third protein. Some entries that bind do so weakly or less than the wild type. Each block holds one molecule with its values, some of them ahead of it.
Molecular target: T1, NOXA (endogenous) (human (endogenous in HeLa)) (UniProt Q13794)
T1 sequence: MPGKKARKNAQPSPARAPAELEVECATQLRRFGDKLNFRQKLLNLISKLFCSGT
Test: co-IP; endogenous NOXA precipitated with NOXA antibody (clone N-15) and Protein G beads from HeLa cells treated with DOX as indicated; cells cross-linked with 2.5 mM DSS before lysis; western blot

The chains behind the UniProt entries cited, without tags or fusion partners.
UniProt Q9UNE7: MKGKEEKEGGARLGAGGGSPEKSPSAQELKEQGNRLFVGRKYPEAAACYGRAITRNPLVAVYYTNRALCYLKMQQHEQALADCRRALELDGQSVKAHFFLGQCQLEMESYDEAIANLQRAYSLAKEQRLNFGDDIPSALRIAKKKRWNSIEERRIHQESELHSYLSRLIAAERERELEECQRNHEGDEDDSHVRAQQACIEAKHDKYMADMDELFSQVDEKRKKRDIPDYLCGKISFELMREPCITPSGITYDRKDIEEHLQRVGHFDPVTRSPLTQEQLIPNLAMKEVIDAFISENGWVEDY

- binding: binds
Molecule: CHIP (carboxyl-terminus of Hsc70-interacting protein) (from UniProt Q9UNE7 1-303) (enzyme)

- binding: binds
B1: A1 (protein, UniProt Q16548 1-175)
chain: MTDCEFGYIYRLAQDYLQCVLQIPQPGSGPSKTSRVLQNVAFSVQKEVEKNLKSCLDNVNVVSVDTARTLFNQVMEKEFEDGIINWGRIVTIFAFEGILIKKLLRQQIAPDVDTYKEISYFVAEFIMNNTGEWIRQNGGWENGFVKKFEPKSGWMTFLEVTGKICEMLSLLKQYC

From paper PMC7484759
